# Reference: PubChem BioAssay (NCATS)
# The other results are listed elsewhere or left out. Further columns of the screen follow, without active or inactive calls. Compounds called inactive in the main read-out are mostly missing here. Words in brackets tell the shape of the fitted curve; partial curves, single points and poor fits give uncertain potencies.
# Test: S16 Schwann cell PMP22 intronic element beta-lactamase assay (AID 624044)
# Conditions: S16 rat Schwann cells, PMP22 element beta-lactamase FRET, 24 h
# Outline: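 Beta-lactamase reporter under a PMP22 intronic regulatory element in stable S16 rat Schwann cells; 24 h compound exposure. 460 nm blue signal normalized between DMSO (0%) and potassium clavulanate, with 535 nm FRET tracking viability; curves classed by r2 and response.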
# [1] = measured here: 460 nm blue channel
# [2] = measured here: 530 nm viability channel
SMILES,AC50 [1],AC50 [2]
CCC1(c2ccccc2)C(=O)NC(=O)N(C)C1=O (stereo not given),"25.1 µM [rising, single point]","31.6 µM [rising, single point]"
CCN(CC)C(=O)/C(Cl)=C(\C)OP(=O)(OC)OC,,"0.316 µM [falling, partial curve]"
S=C(S)N1CCNCC1,"8.91 µM [falling, full curve]","1.58 µM [falling, full curve]"
C=CCN1CC[C@]23c4c5ccc(O)c4O[C@H]2[C@@H](O)C=C[C@H]3[C@H]1C5,,"2 µM [falling, partial curve]"
CC[C@H]1CN2CCc3cc(OC)c(OC)cc3[C@H]2C[C@@H]1C[C@@H]1NCCc2cc(OC)c(OC)cc21,"0.562 µM [falling, full curve]",
C=C1Nc2ccccc2C(=O)N1c1ccccc1C,"25.1 µM [falling, partial curve, poor fit]",
C[N+](C)(C)CC(=O)[O-],"0.00355 µM [falling, full curve, poor fit]",
CC1(Cn2ccnn2)[C@H](C(=O)O)N2C(=O)C[C@H]2S1(=O)=O (stereo not given in full),"3.55 µM [falling, full curve]","14.1 µM [rising, partial curve]"
COC([CH2][Hg])CNC(=O)c1ccccc1OCC(=O)O (stereo not given),"6.31 µM [falling, full curve, poor fit]","3.55 µM [rising, partial curve]"
COc1cc(-c2ccc(-[n+]3nc(-c4ccccc4)nn3-c3ccc([N+](=O)[O-])cc3)c(OC)c2)ccc1-[n+]1nc(-c2ccccc2)nn1-c1ccc([N+](=O)[O-])cc1,"19.9 µM [falling, partial curve]",
NC(N)=NN=C(/C=C/c1ccc([N+](=O)[O-])o1)/C=C/c1ccc([N+](=O)[O-])o1,"12.6 µM [falling, full curve]",
O=C(NC(=O)c1c(F)cccc1F)Nc1cc(Cl)c(OC(F)(F)C(F)C(F)(F)F)cc1Cl (stereo not given),"0.282 µM [falling, full curve, poor fit]",
O=[N+]([O-])c1ccc([As](=O)(O)O)cc1,"2.24 µM [falling, full curve, poor fit]",
Nc1nc(N)nc(NC2CC2)n1,"8.91 µM [falling, single point]",
CNC(=O)NC(O)C(Cl)(Cl)Cl (stereo not given),"12.6 µM [falling, single point]","12.6 µM [falling, single point]"
CCOc1ccc2c3c1O[C@H]1[C@@H](O)C=C[C@H]4[C@@H](C2)N(C)CC[C@@]341,"2.24 µM [falling, partial curve, poor fit]","3.98 µM [falling, partial curve]"
CNc1ccc(C(=O)CC(O)CCC(C)C2OC(=O)CC(O)CC(=O)CC(O)CC(O)CC(O)CC(O)CC3(O)CC(O)C(C(=O)OC)C(CC(O[C@@H]4OC(C)C(O)C(N)C4O)/C=C/C=C/C=C/C=C/C=C/C=C/C=C/C2C)O3)cc1 (stereo not given in full),"25.1 µM [rising, single point]","28.2 µM [rising, single point]"
O=C1C=C2C=CC3C[C@@]2(O1)C1CCCCN31 (stereo not given in full),"25.1 µM [falling, single point]",
CC1(C)S[C@@H]2[C@H](N)C(=O)N2C1C(=O)O (stereo not given in full),"2.13 µM [falling, full curve, poor fit]",
C[C@]12Cc3nonc3C[C@@H]1CC[C@@H]1[C@@H]2CC[C@@]2(C)[C@H]1CC[C@]2(C)O,"1.26 µM [falling, full curve, poor fit]","1.41 µM [falling, full curve]"
CCCSc1ccc2nc(NC(=O)OC)[nH]c2c1,"1.2 µM [falling, full curve]",
NC(=O)CS(=O)C(c1ccccc1)c1ccccc1 (stereo not given),"25.1 µM [falling, single point]","31.6 µM [falling, single point]"
CCCCCc1cc(O)c2c(c1)OC(C)(C)C1CC=C(C)CC21 (stereo not given),"12.6 µM [rising, partial curve]",
CN1CCc2cc(Cl)c(O)cc2[C@H]2c3ccccc3CC[C@@H]21,"1.41 µM [falling, full curve, poor fit]",
Oc1cccc[c]1[Hg][Cl],"8.91 µM [falling, full curve]","3.98 µM [rising, full curve]"

# Looked up by compound from the entries so far:
SMILES,AC50 [1],AC50 [2]
O=C(NC(=O)c1c(F)cccc1F)Nc1cc(Cl)c(OC(F)(F)C(F)C(F)(F)F)cc1Cl (stereo not given),"0.282 µM [falling, full curve, poor fit]",
CCN(CC)C(=O)/C(Cl)=C(\C)OP(=O)(OC)OC,,"0.316 µM [falling, partial curve]"
